Measurements as given in patent publication US20240158455A1, “MULTIPLE SCLEROSIS ASSOCIATED AUTOANTIGENS, AND USE THEREOF IN THERAPY AND DIAGNOSIS” (NEOGAP Therapeutics AB, priority 2017, published 2024).

molecular target: HLA DRB5 01:01; assay: competition binding assay on HLA DRB5 01:01

binding, binds:
NSPFFLVFFSSPHTS [FABP7 peptide #28 (Aa 121-135 of SEQ ID NO: 1)]
KSIRICTPMGKLGDS [PROK2 peptide #6 (Aa 53-67 of SEQ ID NO: 2)]

molecular target: HLA DRB5 01:01; assay: competitive HLA binding assay (legend: +++ strong binding)

binding, binds:
NSPFFLVFFSSPHTS [FABP7 peptide #28 (Aa 121-135 of SEQ ID NO: 1)]
KSIRICTPMGKLGDS [PROK2 peptide #6 (Aa 53-67 of SEQ ID NO: 2)]

molecular target: HLA DRB5 01:01; assay: competitive HLA binding assay (legend: ++ moderate binding)

binding, binds:
FDEYMKALGVGFATR [FABP7 peptide #4 (Aa 17-31 of SEQ ID NO: 1)]
PFFLLPSFFNNTSLA [FABP7 peptide #33 (Aa 146-160 of SEQ ID NO: 1)]
LPGLACLRTSFNRFI [PROK2 peptide #20 (Aa 110-124 of SEQ ID NO: 2)]

molecular target: HLA DRB5 01:01; assay: competitive HLA binding assay (legend: + weak binding)

binding, binds:
KKEVPFFGRRMHHTC [PROK2 peptide #14 (Aa 93-107 of SEQ ID NO: 2)]
RKNNFGNGRQERRKR [PROK2 peptide #10 (Aa 73-87 of SEQ ID NO: 2)]
VEAFCATWKLTNSQN [FABP7 peptide #1 (Aa 02-16 of SEQ ID NO: 1)]
SFFNNTSLARFFNYM [FABP7 peptide #34 (Aa 152-166 of SEQ ID NO: 1)]
SPHTSHLLPSSSLLL [FABP7 peptide #30 (Aa 131-145 of SEQ ID NO: 1)]
CLRTSFNRFICLAQK [PROK2 peptide #21 (Aa 115-129 of SEQ ID NO: 2)]
ETNFVREIKDGKMVM [FABP7 peptide #21 (Aa 102-116 of SEQ ID NO: 1)]
CHPLTRKNNFGNGRQ [PROK2 peptide #9 (Aa 68-82 of SEQ ID NO: 2)]
LTFGDVVAVRHYEKA [FABP7 peptide #24 (Aa 118-132 of SEQ ID NO: 6)]
LVFFSSPHTSHLLPS [FABP7 peptide #29 (Aa 126-140 of SEQ ID NO: 1)]
VSIWVKSIRICTPMG [PROK2 peptide #5 (Aa 48-62 of SEQ ID NO: 2)]
ATWKLTNSQNFDEYM [FABP7 peptide #2 (Aa 07-21 of SEQ ID NO: 1)]
GFATRQVGNVTKPTV [FABP7 peptide #6 (Aa 27-41 of SEQ ID NO: 1)]
GMCCAVSIWVKSIRI [PROK2 peptide #4 (Aa 43-57 of SEQ ID NO: 2)]
GDKVVIRTLSTFKNT [FABP7 peptide #10 (Aa 47-61 of SEQ ID NO: 1)]
DGKMVMVSNDNSPFF [FABP7 peptide #26 (Aa 111-125 of SEQ ID NO: 1)]

Results are given in words; binding and its absence hold for the method and conditions named. Binding can be weak; no strength is given.
